Assay [1] has as its target T1, F-ATP synthase subunit γ (bovine heart) (bovine) (UniProt P05631).
T1 sequence: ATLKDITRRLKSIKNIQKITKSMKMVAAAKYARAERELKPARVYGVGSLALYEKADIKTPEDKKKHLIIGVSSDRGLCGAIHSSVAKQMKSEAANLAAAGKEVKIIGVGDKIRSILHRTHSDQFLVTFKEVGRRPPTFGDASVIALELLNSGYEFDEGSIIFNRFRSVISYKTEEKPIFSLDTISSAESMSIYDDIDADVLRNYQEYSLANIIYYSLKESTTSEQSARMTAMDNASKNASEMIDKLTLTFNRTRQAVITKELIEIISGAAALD
The assay is described as follows: far-Western, overlay or dot blot.

Assay [2] has as its target recombinant mature human CyPD (human), P30405. Kind of assay: far-Western, overlay or dot blot. As to conditions: remark: other sources report otherwise.

These are yes or no findings as the source states them, for the method shown. Some entries that bind do so weakly or less than the wild type.

B1: purified human TRAP1 (protein, UniProt Q12931 60-704)
chain: STQTAEDKEEPLHSIISSTESVQGSTSKHEFQAETKKLLDIVARSLYSEKEVFIRELISNASDALEKLRHKLVSDGQALPEMEIHLQTNAEKGTITIQDTGIGMTQEELVSNLGTIARSGSKAFLDALQNQAEASSKIIGQFGVGFYSAFMVADRVEVYSRSAAPGSLGYQWLSDGSGVFEIAEASGVRTGTKIIIHLKSDCKEFSSEARVRDVVTKYSNFVSFPLYLNGRRMNTLQAIWMMDPKDVREWQHEEFYRYVAQAHDKPRYTLHYKTDAPLNIRSIFYVPDMKPSMFDVSRELGSSVALYSRKVLIQTKATDILPKWLRFIRGVVDSEDIPLNLSRELLQESALIRKLRDVLQQRLIKFFIDQSKKDAEKYAKFFEDYGLFMREGIVTATEQEVKEDIAKLLRYESSALPSGQLTSLSEYASRMRAGTRNIYYLCAPNRHLAEHSPYYEAMKKKDTEVLFCFEQFDELTLLHLREFDKKKLISVETDIVVDHYKEEKFEDRSPAAECLSEKETEELMAWMRNVLGSRVTNVKVTLRLDTHPAMVTVLEMGAARHFLRMQQLAKTQEERAQLLQPTLEINPRHALIKKLNQLRASEPGLAQLLVDQIYENAMIAAGLVDDPRAMVGRLNELLVKALERH
For the molecule B1, in assay [1], the binding entry is listed as “binds”.

B2: purified human TRAP1, Q12931 60-704 (protein)
chain: B1 chain
As to B2, the binding entry in assay [2] is on record as “binds”.

The values above are taken from paper doi:10.1101/2021.12.06.471412.
